Data from article doi:10.1101/2025.10.16.682774 (bioRxiv, 2025).
These are yes or no findings as the source states them, for the method shown. For some of these results: Binding seen in cells or lysates may run through a third protein. Some entries that bind do so weakly or less than the wild type. For some of these results: Tags and fused reporters may be left off the sequences shown.

Protein sequences, listed by entry. Tags and fused reporters are not part of them. Lines headed by an entry give the natural chain unless they say otherwise; changes in a name come on top. Residues count along the entry.
UniProt O15027, 1-1101: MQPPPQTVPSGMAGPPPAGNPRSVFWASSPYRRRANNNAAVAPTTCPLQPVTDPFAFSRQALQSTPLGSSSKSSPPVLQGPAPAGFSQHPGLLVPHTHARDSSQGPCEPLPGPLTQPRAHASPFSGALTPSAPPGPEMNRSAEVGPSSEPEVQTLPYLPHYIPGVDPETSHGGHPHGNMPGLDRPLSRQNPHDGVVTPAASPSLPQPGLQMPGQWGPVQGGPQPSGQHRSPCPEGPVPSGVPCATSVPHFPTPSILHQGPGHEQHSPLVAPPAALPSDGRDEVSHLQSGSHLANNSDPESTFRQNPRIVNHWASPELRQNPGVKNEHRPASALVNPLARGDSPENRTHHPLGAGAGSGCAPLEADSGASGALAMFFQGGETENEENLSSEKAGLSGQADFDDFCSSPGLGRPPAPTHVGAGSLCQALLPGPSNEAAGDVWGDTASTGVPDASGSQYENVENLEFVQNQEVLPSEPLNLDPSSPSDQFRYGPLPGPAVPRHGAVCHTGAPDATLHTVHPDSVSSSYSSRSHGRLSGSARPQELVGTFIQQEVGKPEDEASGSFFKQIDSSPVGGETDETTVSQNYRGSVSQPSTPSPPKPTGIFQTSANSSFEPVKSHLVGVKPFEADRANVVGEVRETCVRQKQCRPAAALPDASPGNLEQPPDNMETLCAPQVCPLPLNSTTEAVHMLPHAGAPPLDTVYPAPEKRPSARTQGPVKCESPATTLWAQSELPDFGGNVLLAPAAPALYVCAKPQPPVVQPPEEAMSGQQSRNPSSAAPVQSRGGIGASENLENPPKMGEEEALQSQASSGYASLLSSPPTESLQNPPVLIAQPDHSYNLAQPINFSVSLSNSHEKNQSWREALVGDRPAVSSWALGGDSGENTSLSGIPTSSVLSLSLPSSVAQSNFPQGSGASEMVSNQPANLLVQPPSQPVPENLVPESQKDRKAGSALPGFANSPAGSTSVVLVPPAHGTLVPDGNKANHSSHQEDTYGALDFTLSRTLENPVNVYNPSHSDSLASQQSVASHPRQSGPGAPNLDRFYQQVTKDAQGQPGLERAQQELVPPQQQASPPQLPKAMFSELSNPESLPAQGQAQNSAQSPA
UniProt O15027, 511-1100: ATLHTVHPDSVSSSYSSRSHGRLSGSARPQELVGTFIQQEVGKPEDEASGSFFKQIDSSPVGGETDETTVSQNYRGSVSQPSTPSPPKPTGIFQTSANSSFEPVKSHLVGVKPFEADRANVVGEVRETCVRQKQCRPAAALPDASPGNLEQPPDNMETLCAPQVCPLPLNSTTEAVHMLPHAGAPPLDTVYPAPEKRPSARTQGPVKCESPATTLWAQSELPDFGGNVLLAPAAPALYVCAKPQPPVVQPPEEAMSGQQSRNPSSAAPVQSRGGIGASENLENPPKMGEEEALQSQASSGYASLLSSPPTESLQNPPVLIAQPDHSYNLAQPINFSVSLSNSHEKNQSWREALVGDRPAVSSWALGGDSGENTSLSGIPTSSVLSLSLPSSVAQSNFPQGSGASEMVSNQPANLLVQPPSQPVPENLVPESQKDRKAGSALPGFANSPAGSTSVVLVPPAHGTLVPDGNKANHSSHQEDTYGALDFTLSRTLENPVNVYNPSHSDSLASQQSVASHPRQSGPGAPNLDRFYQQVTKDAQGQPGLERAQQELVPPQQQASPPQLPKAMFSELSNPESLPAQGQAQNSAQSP
UniProt O15027, 1101-1890: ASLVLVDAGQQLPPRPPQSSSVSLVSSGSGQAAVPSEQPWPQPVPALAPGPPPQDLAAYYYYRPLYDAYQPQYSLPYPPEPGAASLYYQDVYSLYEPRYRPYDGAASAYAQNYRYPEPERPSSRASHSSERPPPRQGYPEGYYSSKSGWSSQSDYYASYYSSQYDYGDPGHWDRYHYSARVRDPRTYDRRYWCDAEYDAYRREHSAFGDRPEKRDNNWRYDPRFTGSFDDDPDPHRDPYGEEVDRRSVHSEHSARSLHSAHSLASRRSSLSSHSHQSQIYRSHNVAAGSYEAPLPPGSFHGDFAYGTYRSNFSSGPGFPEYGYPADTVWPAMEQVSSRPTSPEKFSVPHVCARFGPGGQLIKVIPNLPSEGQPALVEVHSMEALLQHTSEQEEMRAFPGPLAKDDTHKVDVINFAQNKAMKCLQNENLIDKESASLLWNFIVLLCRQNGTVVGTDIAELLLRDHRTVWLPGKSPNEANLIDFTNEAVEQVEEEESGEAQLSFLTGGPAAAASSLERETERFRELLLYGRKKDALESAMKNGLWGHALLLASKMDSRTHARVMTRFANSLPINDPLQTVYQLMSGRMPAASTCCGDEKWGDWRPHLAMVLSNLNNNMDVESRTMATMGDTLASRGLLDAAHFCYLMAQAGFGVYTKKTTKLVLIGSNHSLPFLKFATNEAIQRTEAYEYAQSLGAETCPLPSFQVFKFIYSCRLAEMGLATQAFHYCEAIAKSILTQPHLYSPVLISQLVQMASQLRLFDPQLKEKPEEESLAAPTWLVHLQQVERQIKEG
UniProt O15027, 1890-2357: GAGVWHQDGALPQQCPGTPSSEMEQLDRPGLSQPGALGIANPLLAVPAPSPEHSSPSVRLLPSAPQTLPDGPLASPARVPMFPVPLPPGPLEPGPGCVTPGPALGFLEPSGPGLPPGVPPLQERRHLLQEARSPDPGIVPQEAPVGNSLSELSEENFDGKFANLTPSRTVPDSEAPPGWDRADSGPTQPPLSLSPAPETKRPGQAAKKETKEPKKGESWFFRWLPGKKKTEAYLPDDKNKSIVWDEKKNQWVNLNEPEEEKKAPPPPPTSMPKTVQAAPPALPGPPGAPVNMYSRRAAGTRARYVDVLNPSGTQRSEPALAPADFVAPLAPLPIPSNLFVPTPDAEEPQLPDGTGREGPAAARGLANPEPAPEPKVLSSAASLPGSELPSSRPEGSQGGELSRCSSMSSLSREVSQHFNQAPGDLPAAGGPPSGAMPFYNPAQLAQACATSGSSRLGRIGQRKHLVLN

T1: p115(1-655)-HA-MAO (human) (UniProt O60763)
T1 sequence: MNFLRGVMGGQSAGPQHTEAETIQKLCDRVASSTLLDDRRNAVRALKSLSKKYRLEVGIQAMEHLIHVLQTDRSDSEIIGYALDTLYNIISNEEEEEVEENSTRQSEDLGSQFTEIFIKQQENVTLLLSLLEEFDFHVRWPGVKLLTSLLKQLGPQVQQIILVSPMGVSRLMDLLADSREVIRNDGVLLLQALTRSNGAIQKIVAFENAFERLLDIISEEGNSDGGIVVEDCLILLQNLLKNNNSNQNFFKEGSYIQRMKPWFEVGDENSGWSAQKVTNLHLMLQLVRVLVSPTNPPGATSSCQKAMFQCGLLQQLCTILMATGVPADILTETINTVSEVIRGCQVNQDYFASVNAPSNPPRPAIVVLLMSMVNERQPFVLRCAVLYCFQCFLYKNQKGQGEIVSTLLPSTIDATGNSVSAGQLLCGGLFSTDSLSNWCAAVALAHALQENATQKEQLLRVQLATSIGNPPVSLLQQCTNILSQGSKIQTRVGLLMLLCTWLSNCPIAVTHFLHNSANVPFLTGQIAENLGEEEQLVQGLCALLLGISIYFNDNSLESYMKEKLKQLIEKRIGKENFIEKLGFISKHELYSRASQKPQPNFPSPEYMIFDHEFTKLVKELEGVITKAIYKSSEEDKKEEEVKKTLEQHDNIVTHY


How the values were obtained:
[1] = molecular target: T1, p115(1-655)-HA-MAO (human); test: mitochondrial relocation assay
[2] = molecular target: Sec16A(650-776)-GFP (human) (UniProt O15027); test: co-IP
[3] = molecular target: mitochondrial form of Sec16A(650-776) (human) (UniProt O15027); test: mitochondrial relocation assay
[4] = molecular target: Sec16A(650-776)-GFP (human) (UniProt O15027); test: pull-down

Molecule | binding [1] | other results
Sec16A(511-1100) fused to GFP (from UniProt O15027 511-1100) (domain or fragment) | binds | –
Sec16A(1-1101) fused to GFP (from UniProt O15027 1-1101) (domain or fragment) | binds | –
Sec16A(1890-2357) fused to GFP (from UniProt O15027 1890-2357) (domain or fragment) | no binding | –
Sec16A(1101-1890) fused to GFP (from UniProt O15027 1101-1890) (domain or fragment) | no binding | –
endogenous p115 (HEK293T) (protein, UniProt O60763 1-962) MNFLRGVMGGQSAGPQHTEAETIQKLCDRVASSTLLDDRRNAVRALKSLSKKYRLEVGIQAMEHLIHVLQTDRSDSEIIGYALDTLYNIISNEEEEEVEENSTRQSEDLGSQFTEIFIKQQENVTLLLSLLEEFDFHVRWPGVKLLTSLLKQLGPQVQQIILVSPMGVSRLMDLLADSREVIRNDGVLLLQALTRSNGAIQKIVAFENAFERLLDIISEEGNSDGGIVVEDCLILLQNLLKNNNSNQNFFKEGSYIQRMKPWFEVGDENSGWSAQKVTNLHLMLQLVRVLVSPTNPPGATSSCQKAMFQCGLLQQLCTILMATGVPADILTETINTVSEVIRGCQVNQDYFASVNAPSNPPRPAIVVLLMSMVNERQPFVLRCAVLYCFQCFLYKNQKGQGEIVSTLLPSTIDATGNSVSAGQLLCGGLFSTDSLSNWCAAVALAHALQENATQKEQLLRVQLATSIGNPPVSLLQQCTNILSQGSKIQTRVGLLMLLCTWLSNCPIAVTHFLHNSANVPFLTGQIAENLGEEEQLVQGLCALLLGISIYFNDNSLESYMKEKLKQLIEKRIGKENFIEKLGFISKHELYSRASQKPQPNFPSPEYMIFDHEFTKLVKELEGVITKAIYKSSEEDKKEEEVKKTLEQHDNIVTHYKNMIREQDLQLEELRQQVSTLKCQNEQLQTAVTQQVSQIQQHKDQYNLLKIQLGKDNQHQGSYSEGAQMNGIQPEEIGRLREEIEELKRNQELLQSQLTEKDSMIENMKSSQTSGTNEQSSAIVSARDSEQVAELKQELATLKSQLNSQSVEITKLQTEKQELLQKTEAFAKSVEVQGETETIIATKTTDVEGRLSALLQETKELKNEIKALSEERTAIKEQLDSSNSTIAILQTEKDKLELEITDSKKEQDDLLVLLADQDQKILSLKNKLKDLGHPVEEEDELESGDQEDEDDESEDPGKDLDHI | – | binding [2]: binds
endogenous p115 (HeLa) (protein, UniProt O60763 1-962) MNFLRGVMGGQSAGPQHTEAETIQKLCDRVASSTLLDDRRNAVRALKSLSKKYRLEVGIQAMEHLIHVLQTDRSDSEIIGYALDTLYNIISNEEEEEVEENSTRQSEDLGSQFTEIFIKQQENVTLLLSLLEEFDFHVRWPGVKLLTSLLKQLGPQVQQIILVSPMGVSRLMDLLADSREVIRNDGVLLLQALTRSNGAIQKIVAFENAFERLLDIISEEGNSDGGIVVEDCLILLQNLLKNNNSNQNFFKEGSYIQRMKPWFEVGDENSGWSAQKVTNLHLMLQLVRVLVSPTNPPGATSSCQKAMFQCGLLQQLCTILMATGVPADILTETINTVSEVIRGCQVNQDYFASVNAPSNPPRPAIVVLLMSMVNERQPFVLRCAVLYCFQCFLYKNQKGQGEIVSTLLPSTIDATGNSVSAGQLLCGGLFSTDSLSNWCAAVALAHALQENATQKEQLLRVQLATSIGNPPVSLLQQCTNILSQGSKIQTRVGLLMLLCTWLSNCPIAVTHFLHNSANVPFLTGQIAENLGEEEQLVQGLCALLLGISIYFNDNSLESYMKEKLKQLIEKRIGKENFIEKLGFISKHELYSRASQKPQPNFPSPEYMIFDHEFTKLVKELEGVITKAIYKSSEEDKKEEEVKKTLEQHDNIVTHYKNMIREQDLQLEELRQQVSTLKCQNEQLQTAVTQQVSQIQQHKDQYNLLKIQLGKDNQHQGSYSEGAQMNGIQPEEIGRLREEIEELKRNQELLQSQLTEKDSMIENMKSSQTSGTNEQSSAIVSARDSEQVAELKQELATLKSQLNSQSVEITKLQTEKQELLQKTEAFAKSVEVQGETETIIATKTTDVEGRLSALLQETKELKNEIKALSEERTAIKEQLDSSNSTIAILQTEKDKLELEITDSKKEQDDLLVLLADQDQKILSLKNKLKDLGHPVEEEDELESGDQEDEDDESEDPGKDLDHI | – | binding [3]: binds
flag-tagged p115 head domain (1-655) Q462D (domain or fragment, UniProt O60763 1-655) MNFLRGVMGGQSAGPQHTEAETIQKLCDRVASSTLLDDRRNAVRALKSLSKKYRLEVGIQAMEHLIHVLQTDRSDSEIIGYALDTLYNIISNEEEEEVEENSTRQSEDLGSQFTEIFIKQQENVTLLLSLLEEFDFHVRWPGVKLLTSLLKQLGPQVQQIILVSPMGVSRLMDLLADSREVIRNDGVLLLQALTRSNGAIQKIVAFENAFERLLDIISEEGNSDGGIVVEDCLILLQNLLKNNNSNQNFFKEGSYIQRMKPWFEVGDENSGWSAQKVTNLHLMLQLVRVLVSPTNPPGATSSCQKAMFQCGLLQQLCTILMATGVPADILTETINTVSEVIRGCQVNQDYFASVNAPSNPPRPAIVVLLMSMVNERQPFVLRCAVLYCFQCFLYKNQKGQGEIVSTLLPSTIDATGNSVSAGQLLCGGLFSTDSLSNWCAAVALAHALQENATQKEQLLRVDLATSIGNPPVSLLQQCTNILSQGSKIQTRVGLLMLLCTWLSNCPIAVTHFLHNSANVPFLTGQIAENLGEEEQLVQGLCALLLGISIYFNDNSLESYMKEKLKQLIEKRIGKENFIEKLGFISKHELYSRASQKPQPNFPSPEYMIFDHEFTKLVKELEGVITKAIYKSSEEDKKEEEVKKTLEQHDNIVTHY | – | binding [4]: no binding
